These results are taken from PMC5703999, “The E. coli dicarboxylic acid transporters DauA act as a signal transducer by interacting with the DctA uptake system” (Scientific Reports, 2017).

The chains behind the UniProt entries cited, without tags or fusion partners.
UniProt P0ABA0: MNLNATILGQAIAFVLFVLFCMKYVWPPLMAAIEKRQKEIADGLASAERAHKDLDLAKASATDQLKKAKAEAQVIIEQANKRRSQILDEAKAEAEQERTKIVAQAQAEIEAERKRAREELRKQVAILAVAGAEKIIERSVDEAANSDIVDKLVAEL

No constants are given. Whether binding was seen depends on the method and setting. In cells and extracts the contact can be indirect. A yes stands for co-enrichment or nearness to the bait. Other partners may have been found. No binding means not detected with the bait. Sequences can lack the tags named with a protein.

To fix the notation:
B1: DcuS fused to the T18 or T25 domain of adenylate cyclase (natural protein, E. coli, UniProt P0AEC8 1-543, looked up)
chain: MRHSLPYRMLRKRPMKLSTTVILMVSAVLFSVLLVVHLIYFSQISDMTRDGLANKALAVARTLADSPEIRQGLQKKPQESGIQAIAEAVRKRNDLLFIVVTDMQSLRYSHPEAQRIGQPFKGDDILKALNGEENVAINRGFLAQALRVFTPIYDENHKQIGVVAIGLELSRVTQQINDSRWSIIWSVLFGMLVGLIGTCILVKVLKKILFGLEPYEISTLFEQRQAMLQSIKEGVVAVDDRGEVTLINDAAQELLNYRKSQDDEKLSTLSHSWSQVVDVSEVLRDGTPRRDEEITIKDRLLLINTVPVRSNGVIIGAISTFRDKTEVRKLMQRLDGLVNYADALRERSHEFMNKLHVILGLLHLKSYKQLEDYILKTANNYQEEIGSLLGKIKSPVIAGFLISKINRATDLGHTLILNSESQLPDSGSEDQVATLITTLGNLIENALEALGPEPGGEISVTLHYRHGWLHCEVNDDGPGIAPDKIDHIFDKGVSTKGSERGVGLALVKQQVENLGGSIAVESEPGIFTQFFVQIPWDGERSNR
notes: Membrane embedded sensor histidine kinase DcuS, E. coli; also called DcuS-T18; DcuS-T25; source: bacterial two-hybrid fusion (pUT18 or pKNT25), in E. coli BTH101 (cyaA-); not shown: T18 or T25 domain of Bordetella pertussis adenylate cyclase CyaA, C-terminal, kept
B2: Lipopolysaccharide export system ATP-binding protein LptB (protein, UniProt P0A9V1 1-241)
chain: MATLTAKNLAKAYKGRRVVEDVSLTVNSGEIVGLLGPNGAGKTTTFYMVVGIVPRDAGNIIIDDDDISLLPLHARARRGIGYLPQEASIFRRLSVYDNLMAVLQIRDDLSAEQREDRANELMEEFHIEHLRDSMGQSLSGGERRRVEIARALAANPKFILLDEPFAGVDPISVIDIKRIIEHLRDSGLGVLITDHNVRETLAVCERAYIVSQGHLIAHGTPTEILQDEHVKRVYLGEDFRL
B3: UPF0434 protein YcaR (protein, UniProt P0AAZ7 1-60)
chain: MDHRLLEIIACPVCNGKLWYNQEKQELICKLDNLAFPLRDGIPVLLETEARVLTADESKS
B4: Cardiolipin synthase (CL synthase) (enzyme, UniProt P0A6H8 1-486)
chain: MTTVYTLVSWLAILGYWLLIAGVTLRILMKRRAVPSAMAWLLIIYILPLVGIIAYLAVGELHLGKRRAERARAMWPSTAKWLNDLKACKHIFAEENSSVAAPLFKLCERRQGIAGVKGNQLQLMTESDDVMQALIRDIQLARHNIEMVFYIWQPGGMADQVAESLMAAARRGIHCRLMLDSAGSVAFFRSPWPELMRNAGIEVVEALKVNLMRVFLRRMDLRQHRKMIMIDNYIAYTGSMNMVDPRYFKQDAGVGQWIDLMARMEGPIATAMGIIYSCDWEIETGKRILPPPPDVNIMPFEQASGHTIHTIASGPGFPEDLIHQALLTAAYSAREYLIMTTPYFVPSDDLLHAICTAAQRGVDVSIILPRKNDSMLVGWASRAFFTELLAAGVKIYQFEGGLLHTKSVLVDGELSLVGTVNLDMRSLWLNFEITLAIDDKGFGADLAAVQDDYISRSRLLDARLWLKRPLWQRVAERLFYFFSPLL
B5: Aerobic C4-dicarboxylate transport protein DctA, endogenous (protein, UniProt P0A830 1-428)
chain: MKTSLFKSLYFQVLTAIAIGILLGHFYPEIGEQMKPLGDGFVKLIKMIIAPVIFCTVVTGIAGMESMKAVGRTGAVALLYFEIVSTIALIIGLIIVNVVQPGAGMNVDPATLDAKAVAVYADQAKDQGIVAFIMDVIPASVIGAFASGNILQVLLFAVLFGFALHRLGSKGQLIFNVIESFSQVIFGIINMIMRLAPIGAFGAMAFTIGKYGVGTLVQLGQLIICFYITCILFVVLVLGSIAKATGFSIFKFIRYIREELLIVLGTSSSESALPRMLDKMEKLGCRKSVVGLVIPTGYSFNLDGTSIYLTMAAVFIAQATNSQMDIVHQITLLIVLLLSSKGAAGVTGSGFIVLAATLSAVGHLPVAGLALILGIDRFMSEARALTNLVGNGVATIVVAKWVKELDHKKLDDVLNNRAPDGKTHELSS
B6: Inner membrane protein YbhL (protein, UniProt P0AAC4 1-234)
chain: MDRFPRSDSIVQPRAGLQTYMAQVYGWMTVGLLLTAFVAWYAANSAAVMELLFTNRVFLIGLIIAQLALVIVLSAMIQKLSAGVTTMLFMLYSALTGLTLSSIFIVYTAASIASTFVVTAGMFGAMSLYGYTTKRDLSGFGNMLFMALIGIVLASLVNFWLKSEALMWAVTYIGVIVFVGLTAYDTQKLKNMGEQIDTRDTSNLRKYSILGALTLYLDFINLFLMLLRIFGNRR
B7: High frequency lysogenization protein HflD (protein, UniProt P25746 1-213)
chain: MAKNYYDITLALAGICQSARLVQQLAHQGHCDADALHVSLNSIIDMNPSSTLAVFGGSEANLRVGLETLLGVLNASSRQGLNAELTRYTLSLMVLERKLSSAKGALDTLGNRINGLQRQLEHFDLQSETLMSAMAAIYVDVISPLGPRIQVTGSPAVLQSPQVQAKVRATLLAGIRAAVLWHQVGGGRLQLMFSRNRLTTQAKQILAHLTPEL
B8: PTS system fructose-specific EIIBC component (EIIBC-Fru) (protein, UniProt P20966 1-563)
chain: MKTLLIIDANLGQARAYMAKTLLGAAARKAKLEIIDNPNDAEMAIVLGDSIPNDSALNGKNVWLGDISRAVAHPELFLSEAKGHAKPYTAPVAATAPVAASGPKRVVAVTACPTGVAHTFMAAEAIETEAKKRGWWVKVETRGSVGAGNAITPEEVAAADLVIVAADIEVDLAKFAGKPMYRTSTGLALKKTAQELDKAVAEATPYEPAGKAQTATTESKKESAGAYRHLLTGVSYMLPMVVAGGLCIALSFAFGIEAFKEPGTLAAALMQIGGGSAFALMVPVLAGYIAFSIADRPGLTPGLIGGMLAVSTGSGFIGGIIAGFLAGYIAKLISTQLKLPQSMEALKPILIIPLISSLVVGLAMIYLIGKPVAGILEGLTHWLQTMGTANAVLLGAILGGMMCTDMGGPVNKAAYAFGVGLLSTQTYGPMAAIMAAGMVPPLAMGLATMVARRKFDKAQQEGGKAALVLGLCFISEGAIPFAARDPMRVLPCCIVGGALTGAISMAIGAKLMAPHGGLFVLLIPGAITPVLGYLVAIIAGTLVAGLAYAFLKRPEVDAVAKAA
B9: Nickel import ATP-binding protein NikE (protein, UniProt P33594 1-268)
chain: MTLLNISGLSHHYAHGGFNGKHQHQAVLNNVSLTLKSGETVALLGRSGCGKSTLARLLVGLESPAQGNISWRGEPLAKLNRAQRKAFRRDIQMVFQDSISAVNPRKTVREILREPMRHLLSLKKSEQLARASEMLKAVDLDDSVLDKRPPQLSGGQLQRVCLARALAVEPKLLILDEAVSNLDLVLQAGVIRLLKKLQQQFGTACLFITHDLRLVERFCQRVMVMDNGQIVETQVVGEKLTFSSDAGRVLQNAVLPAFPVRRRTTEKV
B10: Sensor protein ZraS (protein, UniProt P14377 1-465)
chain: MRFMQRSKDSLAKWLSAILPVVIVGLVGLFAVTVIRDYGRASEADRQALLEKGNVLIRALESGSRVGMGMRMHHVQQQALLEEMAGQPGVLWFAVTDAQGIIILHSDPDKVGRALYSPDEMQKLKPEENSRWRLLGKTETTPALEVYRLFQPMSAPWRHGMHNMPRCNGKAVPQVDAQQAIFIAVDASDLVATQSGEKRNTLIILFALATVLLASVLSFFWYRRYLRSRQLLQDEMKRKEKLVALGHLAAGVAHEIRNPLSSIKGLAKYFAERAPAGGEAHQLAQVMAKEADRLNRVVSELLELVKPTHLALQAVDLNTLINHSLQLVSQDANSREIQLRFTANDTLPEIQADPDRLTQVLLNLYLNAIQAIGQHGVISVTASESGAGVKISVTDSGKGIAADQLDAIFTPYFTTKAEGTGLGLAVVHNIVEQHGGTIQVASQEGKGSTFTLWLPVNITRKDPQG

The assay has as its target T1, Chromosomally encoded C-terminally His-tagged DauA (E. coli K-12) (UniProt P0AFR2).
T1 sequence: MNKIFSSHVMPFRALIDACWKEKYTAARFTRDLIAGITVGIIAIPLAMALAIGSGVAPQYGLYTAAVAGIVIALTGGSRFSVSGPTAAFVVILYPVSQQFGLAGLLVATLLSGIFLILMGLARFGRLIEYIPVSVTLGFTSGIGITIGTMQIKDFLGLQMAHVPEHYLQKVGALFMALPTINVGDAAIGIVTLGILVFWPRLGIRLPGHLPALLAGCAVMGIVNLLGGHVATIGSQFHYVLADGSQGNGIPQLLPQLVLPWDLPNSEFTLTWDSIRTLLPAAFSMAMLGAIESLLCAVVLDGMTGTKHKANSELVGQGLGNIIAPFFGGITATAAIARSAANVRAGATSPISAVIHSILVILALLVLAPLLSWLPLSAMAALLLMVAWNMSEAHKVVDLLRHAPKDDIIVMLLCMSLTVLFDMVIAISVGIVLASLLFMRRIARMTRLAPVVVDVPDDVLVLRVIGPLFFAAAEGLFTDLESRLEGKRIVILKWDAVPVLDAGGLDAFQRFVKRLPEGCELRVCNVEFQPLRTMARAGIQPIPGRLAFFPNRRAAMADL
As to the kind of experiment: affinity purification with mass spectrometry; chromosomal DauA-H6 purified by IMAC (Co2+ HisTrap) from membranes extracted with 2% DDM, cells grown overnight in LB with fumarate; elution fractions of two biological replicates analysed by nLC-MS/MS; proteins found with the non-tagged strain subtracted.
In the case of “ATP synthase subunit b (from UniProt P0ABA0 1-156)”, the binding entry is recorded as “binds”.

In the case of B1, the binding result is listed as “no binding”.

Regarding B2, the binding entry is “binds”.

With B3, the binding entry is reported as “binds”.

As to B4, the binding result is “binds”.

On to B5, for which the binding result is “binds”.

B6: the binding result is “binds”.

As for B7, the binding result is listed as “binds”.

Turning to B8, the binding result is recorded as “binds”.

Consider B9, for which the binding result is given as “binds”.

Take B10: the binding entry was “binds”.
